# Results deposited as PubChem BioAssay AID1259314 (Drosophila RNAi Screening Center, 2017).
# Screen: 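Modifiers of manganese chloride toxicity in fly cells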 (primary screen)
# Cells: Drosophila S2R+ cells
# Reagents: long dsRNA against Drosophila genes
# Timing: 5 days (4 days knock-down, then 1 day metal exposure)
# Conditions: manganese chloride added to 15 mM for 24 hours
# Read-out: 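Luciferase ATP signal used as a proxy for viable cell number, reported as one averaged z-score per dsRNA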
# Direction: mean ATP z-score: higher = more ATP than the plate average, more viable cells under manganese
# Call rule: 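Called active when the mean ATP z-score is above 1.5 or below -1.5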
# Calls: active = strong ATP change, up or down; inactive = no strong ATP change
# The whole screen tested about 3,100 reagents; shown is a random part of them. Over the whole deposit, 289 (9.3%) were called active. 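Active includes both higher and lower ATP than plate average; check the z-score sign for direction.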 Reagents against one gene are numbered here. A plus sign joins genes that one reagent is predicted to hit. Not stated in the record: the amount of reagent.
gene,reagent,mean ATP z-score,Call
CG43373,1,-1.64,active
CG42542,1,0.762,inactive
CG42542,2,-0.0844,inactive
Oatp26F,1,0.0609,inactive
Oatp26F,2,0.179,inactive
Oatp26F,3,-0.309,inactive
KCNQ,1,-1.1,inactive
KCNQ,2,-1.14,inactive
CG1801,1,0.0139,inactive
List,1,-0.177,inactive
List,2,-0.12,inactive
Ir94b,1,0.0666,inactive
CNMaR,1,0.581,inactive
CNMaR,2,-1.55,active
CG13384,1,1.86,active
CG1924,1,-0.472,inactive
CG1924,2,4.28,active
CG33337,1,-0.783,inactive
CG33337,2,0.979,inactive
mdy,1,0.524,inactive
mdy,2,0.54,inactive
Pis,1,-0.704,inactive
Pis,2,0.926,inactive
laza,1,-0.345,inactive
laza,2,-1.39,inactive
Psn,1,0.203,inactive
CG16825,1,-0.735,inactive
CG16825,2,-0.161,inactive
kar,1,-0.344,inactive
kar,2,-0.543,inactive
CG1213,1,0.0867,inactive
CG31904 + CG13796,1,-0.215,inactive
santa-maria,1,0.151,inactive
santa-maria,2,0.405,inactive
Ctl1,1,0.453,inactive
Ctl1,2,1.29,inactive
LpR2,1,1.18,inactive
LpR2,2,-0.553,inactive
LpR2,3,0.0388,inactive
ATP6AP2,1,-0.351,inactive
ATP6AP2,2,-0.453,inactive
Nrx-IV,1,0.663,inactive
Nrx-IV,2,-0.451,inactive
PIG-Q,1,-0.583,inactive
PIG-Q,2,-0.344,inactive
MFS1,1,-0.246,inactive
MFS1,2,0.147,inactive
Or45b,1,0.128,inactive
Or45b,2,-0.229,inactive
Or7a,1,0.731,inactive
CG13575,1,-0.291,inactive
CG13575,2,0.663,inactive
SMSr,1,-0.974,inactive
CG6749,1,-1.17,inactive
CG6749,2,-1,inactive
syd,1,0.621,inactive
syd,2,-0.926,inactive
Ctns,1,-0.969,inactive
Ctns,2,1.07,inactive
dome,1,1.18,inactive
dome,2,0.323,inactive
dome,3,-0.138,inactive
CR33013,1,-0.552,inactive
CR33013,2,0.608,inactive
CG30008,1,-0.653,inactive
CG30008,2,0.447,inactive
Tsp68C,1,-0.506,inactive
Tsp68C,2,-0.206,inactive
Tmtc3,1,-1.02,inactive
CG46441,1,0.127,inactive
CG46441,2,-0.536,inactive
CG11147,1,1.4,inactive
SdhD,1,-0.441,inactive
SdhD,2,0.25,inactive
CG5078,1,-0.951,inactive
TyrR,1,0.112,inactive
TyrR,2,-0.179,inactive
robo3,1,4.04,active
robo3,2,-0.354,inactive
CG7218,1,0.197,inactive
CG7218,2,1.85,active
Trp1,1,1.31,inactive
Trp1,2,0.622,inactive
botv,1,-1.54,active
botv,2,3.42,active
CG9717,1,0.102,inactive
Oatp30B,1,0.534,inactive
Oatp30B,2,-1.28,inactive
Catsup,1,-0.329,inactive
Catsup,2,0.632,inactive
VhaM9.7-d,1,0.105,inactive
CG8249,1,-0.256,inactive
CG8249,2,0.153,inactive
CG32263,1,-1.38,inactive
CG32263,2,-0.752,inactive
CG8399,1,-0.681,inactive
CG8399,2,-0.527,inactive
CG12773,1,0.502,inactive
CG12773,2,0.0237,inactive
nAChRbeta2,1,1.26,inactive
SdhCL,1,-0.246,inactive
SdhCL,2,0.576,inactive
ppk9,1,-0.723,inactive
ppk9,2,-1.34,inactive
CG9483,1,1.47,inactive
CG9483,2,1.99,active
Ostgamma,1,,inactive
Ostgamma,2,-1.02,inactive
CG1494,1,-0.559,inactive
CG6052,1,-0.933,inactive
